No constants are given. Whether binding was seen depends on the method and setting. In cells and extracts the contact can be indirect. Here binding means that the protein was enriched with, or labelled near, the bait; the list need not be complete. Blank lines part the entries; values can stand above or below the molecule they belong to.
Target: Endosulfine (CG6513) (Drosophila melanogaster (endogenous in OrR embryos)) (UniProt Q9VUB8)
Assay: affinity purification with mass spectrometry; Endos immunoprecipitated with purified anti-Endos antibody and Dynabeads-Protein A from 10 mg clarified 0-2 h OrR embryo extract, overnight at 4°C; 50 mM HEPES pH 7.6, 150 mM KCl, 2 mM MgCl2, 5 mM DTT, 0.1% NP40 (1% in 'Buf'), 5% glycerol; with or without phosphatase inhibitors; anti-GFP antibody as control; eight pulldowns; LC-MS-MS/MS, Mascot

Protein sequences, listed by entry. Tags and fused reporters are not part of them. Lines headed by an entry give the natural chain unless they say otherwise; changes in a name come on top.
UniProt Q9VUB8: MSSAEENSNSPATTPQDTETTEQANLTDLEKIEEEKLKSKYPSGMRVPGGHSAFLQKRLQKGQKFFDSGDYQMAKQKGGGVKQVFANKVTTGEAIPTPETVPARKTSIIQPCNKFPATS
UniProt Q9VN21: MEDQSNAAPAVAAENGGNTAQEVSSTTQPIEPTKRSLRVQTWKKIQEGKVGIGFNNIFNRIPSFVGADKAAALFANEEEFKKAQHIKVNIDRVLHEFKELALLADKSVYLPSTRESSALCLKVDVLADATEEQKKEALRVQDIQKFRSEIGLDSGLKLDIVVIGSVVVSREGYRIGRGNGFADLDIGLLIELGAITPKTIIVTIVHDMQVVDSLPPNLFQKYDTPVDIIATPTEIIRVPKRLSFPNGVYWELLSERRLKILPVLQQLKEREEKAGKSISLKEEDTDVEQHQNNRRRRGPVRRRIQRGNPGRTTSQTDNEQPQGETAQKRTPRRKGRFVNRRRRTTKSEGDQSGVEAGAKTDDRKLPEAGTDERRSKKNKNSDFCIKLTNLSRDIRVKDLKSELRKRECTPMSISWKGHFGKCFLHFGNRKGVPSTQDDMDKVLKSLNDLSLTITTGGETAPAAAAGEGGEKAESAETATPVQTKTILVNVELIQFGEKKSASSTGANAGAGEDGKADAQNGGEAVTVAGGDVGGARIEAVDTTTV
UniProt P21187: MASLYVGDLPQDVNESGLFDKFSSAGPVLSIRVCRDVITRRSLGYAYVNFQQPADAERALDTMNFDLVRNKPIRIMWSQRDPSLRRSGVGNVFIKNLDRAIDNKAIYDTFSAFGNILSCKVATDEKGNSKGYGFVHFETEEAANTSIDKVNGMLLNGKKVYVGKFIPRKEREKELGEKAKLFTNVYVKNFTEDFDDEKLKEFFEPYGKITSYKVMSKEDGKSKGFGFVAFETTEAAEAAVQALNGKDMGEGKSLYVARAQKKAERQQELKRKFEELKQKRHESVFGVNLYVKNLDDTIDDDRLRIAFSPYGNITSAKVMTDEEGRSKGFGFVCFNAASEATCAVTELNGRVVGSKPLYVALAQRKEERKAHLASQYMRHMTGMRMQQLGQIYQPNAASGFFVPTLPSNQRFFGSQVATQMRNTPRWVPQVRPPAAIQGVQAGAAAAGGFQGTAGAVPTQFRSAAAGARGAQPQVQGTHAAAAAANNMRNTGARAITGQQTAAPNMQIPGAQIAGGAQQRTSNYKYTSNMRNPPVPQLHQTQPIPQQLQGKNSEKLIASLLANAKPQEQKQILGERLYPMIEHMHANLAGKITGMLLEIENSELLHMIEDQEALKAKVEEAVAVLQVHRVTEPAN

binding: binds
Molecule: Lost (CG14648) (from UniProt Q9VN21)

binding: binds
Molecule: PolyA-binding protein (CG5119) (from UniProt P21187 1-634)

binding: binds
B1: eIF4E1 (CG4035) (protein, UniProt P48598 1-259)
chain: MQSDFHRMKNFANPKSMFKTSAPSTEQGRPEPPTSAAAPAEAKDVKPKEDPQETGEPAGNTATTTAPAGDDAVRTEHLYKHPLMNVWTLWYLENDRSKSWEDMQNEITSFDTVEDFWSLYNHIKPPSEIKLGSDYSLFKKNIRPMWEDAANKQGGRWVITLNKSSKTDLDNLWLDVLLCLIGEAFDHSDQICGAVINIRGKSNKISIWTADGNNEEAALEIGHKLRDALRLGRNNSLQYQLHKDTMVKQGSNVKSIYTL

— paper PMC11286125
